Measurements reported in PubChem BioAssay AID743454 (Peter MacCallum Cancer Centre, 2014)

- Aim: 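Knock-downs lowering viability or raising caspase 3/7 activity in vorinostat-treated resistant cells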 (primary screen)
- Cell system: human HCT116-VR colon cancer cells, selected for vorinostat resistance
- Knock-down reagent: siRNA pool against human genes, 40 nM siRNA pool
- Duration: vorinostat for 24 h, read-out about 72 h after transfection
- Treatment: vorinostat at 2.5 µM final
- Detection: 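Cell viability by CellTiter-Fluor and caspase 3/7 activity by luminescence, each scaled to mock wells per plate, duplicates averaged, then robust z-scored over all plates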
- Scale: viability robust z-score: higher = more viable cells than screen typical; caspase robust z-score: higher = more caspase 3/7 activity than screen typical
- Rule for the call: 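a knock-down is a hit when classed RV1 or RV2 for lowered viability, or CA1 or CA2 for caspase activation; those lethal without drug were dropped; hits were retested singly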
The whole screen tested about 18,000 reagents; below is an unselected part. Of all reagents, 450 (2.5%) were called active. 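Single biological run; no consistent viability z cut-off exists, so the class columns, not z-scores, define the calls.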

gene | viability hit class | caspase hit class | viability robust z-score | caspase robust z-score | call
IRF8 (interferon regulatory factor 8) | no change | no change | 0.03 | -0.82 | inactive
SYNJ1 (synaptojanin 1) | no change | no change | -0.66 | -0.28 | inactive
CH25H (cholesterol 25-hydroxylase) | no change | no change | 0.44 | -0.62 | inactive
RPRML (reprimo like) | no change | no change | 1.56 | 0.57 | inactive
NR2F6 (nuclear receptor subfamily 2 group F member 6) | no change | no change | 0.08 | 0.78 | inactive
ESCO1 | no change | no change | 0.81 | 0.17 | inactive
NUP58 (nucleoporin 58) | RV1 (reduced viability) | no change | -2.98 | 2.34 | active
CCDC181 (coiled-coil domain containing 181) | no change | no change | 0.68 | -0.42 | inactive
PSRC1 (proline and serine rich coiled-coil 1) | no change | no change | -0.19 | 0.84 | inactive
TRADD (TNFRSF1A associated via death domain) | no change | no change | 0.02 | 0.05 | inactive
EFNB3 (ephrin B3) | no change | no change | -2.49 | 2.91 | inactive
GPX6 (glutathione peroxidase 6) | no change | no change | 0.77 | 0.07 | inactive
MAPT (microtubule associated protein tau) | no change | no change | 0.44 | 0.4 | inactive
LEPR (leptin receptor) | no change | no change | 0.4 | -0.7 | inactive
IL20 (interleukin 20) | no change | no change | -1.36 | 0.1 | inactive
TAS1R3 (taste 1 receptor member 3) | no change | no change | 0.18 | 0.57 | inactive
INSC (INSC spindle orientation adaptor protein) | no change | no change | -0.02 | 0.17 | inactive
KRT12 (keratin 12) | no change | no change | 0.32 | -0.84 | inactive
DCUN1D3 (defective in cullin neddylation 1 domain containing 3) | no change | no change | -0.29 | 2.62 | inactive
ZNF263 (zinc finger protein 263) | no change | no change | 0.98 | -0.18 | inactive
KLF4 (KLF transcription factor 4) | no change | no change | -0.49 | 1.22 | inactive
MOGS (mannosyl-oligosaccharide glucosidase) | no change | no change | -0.13 | -0.38 | inactive
OR1N1 (olfactory receptor family 1 subfamily N member 1) | no change | no change | 1.22 | -0.48 | inactive
MSI1 (musashi RNA binding protein 1) | no change | no change | -0.54 | 0.9 | inactive
VXN (vexin) | no change | no change | -0.95 | -0.26 | inactive
OR13C3 (olfactory receptor family 13 subfamily C member 3) | no change | no change | 0.05 | 3.73 | inactive

Continued, starting with the last 6 of the part before.
gene | viability hit class | caspase hit class | viability robust z-score | caspase robust z-score | call
KLF4 (KLF transcription factor 4) | no change | no change | -0.49 | 1.22 | inactive
MOGS (mannosyl-oligosaccharide glucosidase) | no change | no change | -0.13 | -0.38 | inactive
OR1N1 (olfactory receptor family 1 subfamily N member 1) | no change | no change | 1.22 | -0.48 | inactive
MSI1 (musashi RNA binding protein 1) | no change | no change | -0.54 | 0.9 | inactive
VXN (vexin) | no change | no change | -0.95 | -0.26 | inactive
OR13C3 (olfactory receptor family 13 subfamily C member 3) | no change | no change | 0.05 | 3.73 | inactive
CRLS1 (cardiolipin synthase 1) | no change | no change | 0.7 | 0.18 | inactive
RAB27A (RAB27A, member RAS oncogene family) | no change | no change | -0.29 | 1.48 | inactive
SIGLECL1 (SIGLEC family like 1) | no change | no change | 2.33 | 0.8 | inactive
RPAP1 (RNA polymerase II associated protein 1) | no change | no change | -0.07 | 1.56 | inactive
ABTB3 (ankyrin repeat and BTB domain containing 3) | no change | no change | 0.59 | 0.03 | inactive
KCNK18 (potassium two pore domain channel subfamily K member 18) | no change | no change | -0.7 | -0.38 | inactive
RPS6KA1 (ribosomal protein S6 kinase A1) | no change | no change | -2.06 | -0.87 | inactive
CLLU1-AS1 (CLLU1 antisense RNA 1) | no change | no change | -0.18 | 1.48 | inactive
CXorf58 (chromosome X open reading frame 58) | no change | no change | -1 | -1.49 | inactive
ADAT1 (adenosine deaminase tRNA specific 1) | no change | no change | 1.06 | -0.49 | inactive
HERC2 (HECT and RLD domain containing E3 ubiquitin protein ligase 2) | no change | no change | 0.59 | -0.16 | inactive
SH2D1B (SH2 domain containing 1B) | no change | no change | -0.58 | -0.64 | inactive
SPANXN3 (SPANX family member N3) | no change | no change | -0.39 | 0.94 | inactive
XIRP1 (xin actin binding repeat containing 1) | no change | no change | -0.66 | -0.6 | inactive
C5orf46 (chromosome 5 open reading frame 46) | no change | no change | 1.74 | -0.36 | inactive
KCNK1 (potassium two pore domain channel subfamily K member 1) | no change | no change | 0.12 | -0.59 | inactive
CXCR3 (C-X-C motif chemokine receptor 3) | no change | no change | -0.29 | 0.52 | inactive
GFRAL (GDNF family receptor alpha like) | no change | no change | -0.12 | -0.51 | inactive
CFAP410 (cilia and flagella associated protein 410) | RV2 (reduced viability) | no change | -3.7 | 0.11 | active
PALM (paralemmin) | no change | CA1 (caspase activation) | -1.18 | 6.04 | active
PKHD1L1 (PKHD1 like 1) | no change | no change | 0.2 | -0.84 | inactive
UBQLN1 (ubiquilin 1) | no change | no change | -1.03 | -0.66 | inactive
OAZ3 (ornithine decarboxylase antizyme 3) | no change | no change | -1.8 | 1.88 | inactive
TNKS (tankyrase) | no change | no change | -0.14 | 0.29 | inactive
THAP6 (THAP domain containing 6) | no change | no change | -0.08 | -1.02 | inactive
SKP1 (S-phase kinase associated protein 1) | no change | no change | 0.2 | 3 | inactive
POPDC3 (popeye domain cAMP effector 3) | no change | no change | 0.4 | -0.92 | inactive
KIF17 (kinesin family member 17) | no change | no change | 0.81 | 0.82 | inactive
POU6F2 (POU class 6 homeobox 2) | no change | no change | -1.55 | 1.8 | inactive
GLUD2 (glutamate dehydrogenase 2) | no change | no change | 0.3 | -0.4 | inactive
STK11IP (serine/threonine kinase 11 interacting protein) | no change | no change | -1.28 | -0.58 | inactive
